Hit rate of the full screen: of about 2,400 compounds, about 20 (0.8%) were called active.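 How the source made its calls: active means AC50 no more than ten times the highest tested concentration, or full inhibition at every dose giving a flat fit (cut at about 30 µM in these data); inconclusive means flat fit with activity between 30% and 70%, or poor-quality invalid fit; inactive means AC50 more than ten times the top tested dose.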 This is one part of the list.
Assay: luciferase-based ADP detection interference – biochemical, luminescence, cell-free, homogeneous, artefact control for GSK-3a inhibitor project, dose response (AID 463205);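 further: kinase-free counter-screen against the ADP-Glo detection reagents only; potency is for inhibitors that reduce the luminescence signal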
Settings: Cell-free ADP-Glo detection reagents, 5 uM ADP

AC50, inactive:
O=C(CSc1nnc(SCC(=O)c2ccco2)s1)c1ccco1 > 30 µM, Cn1cnnc1SCC(=O)Nc1ccc(Cl)cn1 > 30 µM, CCOc1ccccc1C1N(c2ccc(OC)cc2)C(=O)C2CCCN21 (stereo not given) > 30 µM, Cc1nc2ccc(-c3ccccc3)cc2o1 > 30 µM, Cc1ccc(-c2noc(CSc3nnnn3-c3ccccc3)n2)cc1 > 30 µM, CCOc1ccc(-c2nnc(N)s2)cc1 > 30 µM, O=C(Nc1cccc(-c2nc3cccnc3s2)c1)c1cccnc1Cl > 30 µM, CS(=O)(=O)N1CCN(c2ccccc2NC(=O)c2ccc(Br)o2)CC1 > 30 µM, COC(=O)c1cn(C(=O)c2ccc(Cl)cc2)c2ccccc12 > 30 µM, N#Cc1c(-c2ccncc2)c2c([nH]c1=O)-c1ccccc1OC2 > 30 µM, CCc1ccc(C2CC(c3ccc(F)cc3)Nc3nc(N)nn32)cc1 (stereo not given) > 30 µM, CCOC(=O)c1nn(-c2ccc(Cl)cc2)c2nc(Nc3ccccc3)cc(=O)n12 > 30 µM, Nc1cccc(C(=O)O)c1 > 30 µM, Cc1cccc(N=Nc2c(O)[nH]c3ccc(F)cc23)c1 > 30 µM, Cc1ccc(N=CC2=C(O)CC(C)(C)CC2=O)nc1 > 30 µM, Cc1nc(N)nc(-c2ccccc2O)n1 > 30 µM, O=Cc1cn(-c2ccccc2)nc1-c1cccnc1 > 30 µM, C=CCOc1ccc(/C=N/n2cncn2)cc1OC > 30 µM, CC(C)(C)OC(=O)N1CCN(C(=O)c2[nH]cnc2C(=O)Nc2ccon2)CC1 > 30 µM, CCn1ccc(C(=O)Nc2ccsc2C(=O)OC)n1 > 30 µM, Cc1c(C(=O)OCCOC(C)C)[nH]c2c1C(=O)CC(C)(C)C2 > 30 µM, COc1ccc(-c2ncncc2-c2ccccc2)c(O)c1 > 30 µM, O=c1[nH]cccc1-c1nc2ccccc2[nH]1 > 30 µM, Cc1ccc(C2C(C#N)=C(N)Oc3nc(-c4ccccc4)[nH]c32)o1 (stereo not given) > 30 µM, Brc1ccccc1C1=Nn2c(nnc2-c2ccccc2)SC1 > 30 µM, C=CCNc1nc(N)c([N+](=O)[O-])c(N2CCCCCC2)n1 > 30 µM, O=S(=O)(Nc1ccc(-c2nnc(SCc3ccc(Cl)cc3)o2)cc1)c1ccccc1 > 30 µM, CCNc1nc(NCC)nc(C(=O)OCCO)n1 > 30 µM, CCCOc1ccccc1NC(=O)Nc1ccccc1Cl > 30 µM, CCN1CCN(c2nc(Nc3ccc(OC)cc3)nc(N)c2[N+](=O)[O-])CC1 > 30 µM, COc1cccc(Nc2ncnc3nc[nH]c23)c1 > 30 µM, CCN1/C(=C/c2ccc3cc(C)ccc3[n+]2CC)Sc2ccccc21 > 30 µM, Cc1cc(C)c[n+](C2=C([O-])c3ccccc3C(=O)/C2=N\S(=O)(=O)c2cccs2)c1 > 30 µM, CCCOc1ccc(-c2c(C(=O)N/N=C(\C)c3cccnc3)nnn2-c2nonc2N)cc1 > 30 µM, Cc1ccnc(NC(=O)CCC(=O)N(CC(=O)NCc2ccccc2)Cc2ccc(F)cc2)c1 > 30 µM, CCOc1ccc(S(=O)(=O)c2c(C(=O)c3ccc(C)cc3)cnc3cc4c(cc23)OCCO4)cc1 > 30 µM, CCCc1nc2oc3cc(OC)ccc3c(=O)c2c(=O)n1Cc1ccco1 > 30 µM, CCNC(=S)NNC(=O)c1cccs1 > 30 µM, CCn1c(SCC(=O)N/N=C/c2cccs2)nc2ccccc21 > 30 µM, Brc1cccc(CSc2nnc(-c3ccncc3)o2)c1 > 30 µM, COc1ccccc1C(CNc1ccc(S(=O)(=O)N2CCCC2)cc1[N+](=O)[O-])N(C)C (stereo not given) > 30 µM, CCOC(=O)c1c2c(n(C)c1C)C(=O)C(=O)c1ccc(Br)cc1-2 > 30 µM, COc1ccc(NC(=O)CN(C)C2CCCCC2)c([N+](=O)[O-])c1 > 30 µM, Fc1ccc(C2=Nn3c(nnc3-c3ccco3)SC2)cc1 > 30 µM, CC(C)(C)c1cc(-c2nc(N)nc(N)n2)c(O)c(C(C)(C)C)c1 > 30 µM, O=C(CSc1ccc(F)cc1)Nc1ccc2c(c1)C(=O)NC2=O > 30 µM, O=C(O)c1cc(NC(=O)c2ccccc2[N+](=O)[O-])ccc1O > 30 µM, CC(C)=CCc1c(O)cc(O)c2c(=O)c(O[C@@H]3O[C@@H](C)[C@H](O)[C@@H](O)[C@H]3O)c(-c3ccc(O)cc3)oc12 > 30 µM, Cc1n[nH]c(=S)n1/N=C/c1ccc(-c2ccccc2[N+](=O)[O-])o1 > 30 µM, COc1ccc(OCC(=O)NCCCn2ccnc2)cc1 > 30 µM, CN(C)CCCNc1ccc(S(N)(=O)=O)cc1[N+](=O)[O-] > 30 µM, O=c1c(OC2OC(CO)C(O)C(O)C2O)c(-c2ccc(O)c(O)c2)oc2cc(O)cc(O)c12 (stereo not given) > 30 µM, CCc1nnc(NC(=O)CCN2C(=O)c3ccccc3C2=O)s1 > 30 µM, CC(=O)Nc1ccc(NC(=O)c2cc(-n3cnnc3)ccc2Cl)cc1 > 30 µM, C[C@H](NC(=O)c1nc[nH]c1C(=O)NC1CCN(C(=O)OC(C)(C)C)CC1)C(=O)OC(C)(C)C > 30 µM, Cn1c2ccc(F)cc2c2nc3ccccc3nc21 > 30 µM, CCN1CCN(c2c(Cl)cccc2NC(=O)c2cccs2)CC1 > 30 µM, CC1(C)CC(=O)C(C2c3ccccc3S(=O)(=O)c3ccccc32)C(=O)C1 > 30 µM, COc1cc(C2C(C#N)=C(N)Oc3n[nH]c(-c4cccs4)c32)cc(OC)c1O (stereo not given) > 30 µM, Cc1ccc(-c2nnc(N3CCN(C(=O)COc4cccc(C)c4)CC3)c3ccccc23)cc1 > 30 µM

Reference: PubChem BioAssay AID463205 (Broad Institute, 2010)
